From patent US20250092103 (published 2025)
Strings that start with PEPTIDE1 are HELM notation: dots part the residues, brackets hold end groups and non-standard residues.

Assay: general procedure: Fmoc solid-phase peptide synthesis
Details: whole synthesis, linear ion trap LC/MS with electrospray ionization and amino acid analysis

Substance: PEPTIDE1{M.V.R.I.K.P.G.S.A.N.K.P.S.D.D}$$$$V2.0
- final LC-MS purity: >95%
